# Primary screen of a compound library

T. brucei: 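Whole-parasite assay of Trypanosoma brucei over 72 hours; the read-out is not stated. Concentration: 30 µM. Direction is inferred from retests: higher values go with stronger inhibition. Values scatter widely below zero; nearly all retest evidence comes from the higher of the two concentrations used. Size under these conditions: about 64,000 compounds, about 940 of them at 50% or above in at least one test.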
Toxoplasma: 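Assay of Toxoplasma gondii numbers, read through their beta-galactosidase reporter with a colour substrate. Concentration: 10 µM. Higher reads as fewer parasites (inferred from which compounds were picked for retests). Of about 67,000 compounds tested this way, about 260 (0.38%) reached 50% or more in at least one test.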

The filed quantity is “Percent Effect” (%). The record does not define 0% and 100%; most values in the screen are far below 50% and negative numbers occur (in some assays of this library far below -100). This is an unselected part of the compounds tested. A dash means the value is not listed here; it may have been measured.

With Cc1cccc(CC(=O)NCCCOC(C)C)c1 the screen gave T. brucei: -19.93%; Toxoplasma: -2.435%.
With CN(CC(=O)N1CCc2[nH]c3ccc(F)cc3c2C1)CC1OCCO1 the screen gave T. brucei: -43.31%.
With CC(C)N1CCC(Nc2ccn(C)n2)C1=O (stereo not drawn) the screen gave T. brucei: -14.09%; Toxoplasma: 0.3978%.
With O=C(O)C(F)(F)F.O=C(O)C(F)(F)F.c1cc(CN2CCC3(CC2)CC(N2CCCC2)CO3)co1 (stereo not drawn) the screen gave T. brucei: 6.072%; Toxoplasma: -31.43%.
With CN1CCN(CCCNS(=O)(=O)Cc2ccccc2F)CC1 the screen gave T. brucei: 6.064%; Toxoplasma: -7.91%.
With O=C(c1c[nH]c2ccccc2c1=O)N1CCSCC1 the screen gave T. brucei: 3.541%; Toxoplasma: -7.368%.
With Cc1nccc(C2CN(Cc3ccc(-c4ccccc4C(=O)O)o3)C2)n1 the screen gave T. brucei: -0.2215%; Toxoplasma: -0.1324%.
With CCNc1nc(-c2cccnc2)c(-c2ccnc(N3CCOCC3)n2)s1 the screen gave T. brucei: 0.6895%; Toxoplasma: 10.34%.
With CN(C)CCOc1ccccc1N1CCN(C(=O)C(C)(C)C#N)CC1 the screen gave T. brucei: -40.47%; Toxoplasma: 2.05%.
With COc1cc(OC)cc(C(=O)NCCCNc2ncccn2)c1 the screen gave T. brucei: -15.88%.
With CC(=O)NCCCC(=O)NC1(c2ccc(Cl)c(Cl)c2)CC1 the screen gave T. brucei: -41.07%; Toxoplasma: -1.795%.
With CC(c1nccs1)N(C)S(=O)(=O)NCc1ccccc1 (stereo not drawn) the screen gave T. brucei: 3.067%; Toxoplasma: 2.547%.
With Cc1nc2n(n1)CC(NCc1cnn(-c3ccccc3)n1)CC2 (stereo not drawn) the screen gave T. brucei: 3.549%; Toxoplasma: -55.09%.
With [H][C@@]12CCN(Cc3ccncc3)C[C@@]1([H])O[C@@H](C(=O)N(C)C)C2 the screen gave T. brucei: 8.915%; Toxoplasma: -23.13%.
With Cc1cc(C)n(CC(=O)N2Cc3cnc(C(C)(C)C)nc3C2)n1 the screen gave T. brucei: -6.486%; Toxoplasma: -1.1%.
With Cn1nc(CN2CCCC2)c2c1CN(C(=O)c1cccnc1)CC2.O=C(O)C(F)(F)F.O=C(O)C(F)(F)F the screen gave T. brucei: -98.77%; Toxoplasma: 5.634%.
With CCN(C)C[C@@H]1CN(Cc2cnc3c(S(C)(=O)=O)cnn3c2)C[C@@H]1CO the screen gave T. brucei: -41.18%; Toxoplasma: -1.908%.
With O=C(c1ccc(Cl)cc1)N1CC2(CCNC2)OCc2ccccc21 (stereo not drawn) the screen gave Toxoplasma: -0.7676%.
With Cc1cccc(CN2CCOC3(COCCN(CCN(C)C)C3)C2)n1.O=C(O)C(F)(F)F.O=C(O)C(F)(F)F.O=C(O)C(F)(F)F (stereo not drawn) the screen gave T. brucei: -25.51%; Toxoplasma: -21.91%.
With COCCCS(=O)(=O)N1CCN(C(C)(C)CO)CC1 the screen gave T. brucei: -17.77%; Toxoplasma: -0.6333%.
With Cc1n[nH]c(C2CN(C(=O)CCc3cscn3)CCO2)n1 (stereo not drawn) the screen gave Toxoplasma: -2.156%.
With COc1ccc(C(C)=O)cc1CN1CCn2cccc2C1C (stereo not drawn) the screen gave T. brucei: 30.91%; Toxoplasma: 7.093%.
With CCC1CCCN(C(=O)NCc2cccnc2-n2cccn2)C1 (stereo not drawn) the screen gave T. brucei: -11.21%; Toxoplasma: -1.474%.
With CC1c2ncc(CNC(=O)C3CC3)n2CCN1Cc1cnn(C)c1.O=C(O)C(F)(F)F.O=C(O)C(F)(F)F (stereo not drawn) the screen gave T. brucei: -12.62%; Toxoplasma: 4.38%.
With COc1ccc(CCN2CC(n3nc(C)cc3C)C2)cc1 the screen gave T. brucei: -20.06%; Toxoplasma: 5.088%.
With COCC(=O)N1CCCC2(CCN(CCN3CCCC3)CC2)C1.O=C(O)C(F)(F)F.O=C(O)C(F)(F)F the screen gave T. brucei: -18.7%; Toxoplasma: 2.57%.
With CS(=O)(=O)N1CCOCC2(CCN(Cc3ccc[nH]3)CC2)C1.O=C(O)C(F)(F)F the screen gave T. brucei: -59.52%; Toxoplasma: 0.9043%.
With O=C(O)C(F)(F)F.O=C(O)C(F)(F)F.[H][C@@]12CC(=O)N(c3cccnc3)[C@@]1([H])CCN2Cc1ccc(C)o1 the screen gave T. brucei: -61.9%; Toxoplasma: 4.356%.
With Cc1cnc(CN2CCCC2c2cnn(C)c2)cn1 (stereo not drawn) the screen gave Toxoplasma: 4.582%.
With Cc1nc(CC(=O)N2CCn3c(nnc3C(C)C)C2)cs1 the screen gave Toxoplasma: -13.55%.
With COc1cccc(CC(=O)N2CCc3ncnc(NCCO)c3CC2)c1 the screen gave T. brucei: -1.686%; Toxoplasma: 10.74%.
With COCC(=O)NCC1CCCN(Cc2cc3ccccc3[nH]2)C1 (stereo not drawn) the screen gave T. brucei: -35.35%; Toxoplasma: -8.487%.
With N#Cc1c(N)nc2c(c1C1CCOC1)CCc1cc(O)ccc1-2 (stereo not drawn) the screen gave T. brucei: 6.782%; Toxoplasma: 16.47%.
With CC(C)c1nn(C)c(N2CCOCC2)c1CNC(C)c1ccco1 (stereo not drawn) the screen gave T. brucei: 14.83%; Toxoplasma: -23.66%.
With CCN(CC)Cc1nnc2sc(C(C)Oc3ccccc3)nn12 (stereo not drawn) the screen gave T. brucei: -5.767%; Toxoplasma: 9.12%.
With CNC(=O)c1ccc(CNC(=O)NCCN(C)C2CCCC2)cc1 the screen gave T. brucei: -17.91%; Toxoplasma: 3.143%.
With FC(F)(F)Oc1ccc(-c2noc([C@@H]3Cc4nc[nH]c4CN3)n2)cc1 the screen gave T. brucei: -2.168%; Toxoplasma: -6.821%.
With COCCNC(=O)C1(c2ccccc2C)CCOCC1 the screen gave T. brucei: -38.5%; Toxoplasma: -0.4021%.
With CN(C(=O)Cc1c[nH]c2ccccc12)C1CCN(c2ccccn2)CC1 the screen gave T. brucei: 20.15%; Toxoplasma: 15.48%.
With CCn1cc(NC(=O)c2cccc(OCC(F)(F)F)n2)cn1 the screen gave T. brucei: 27.63%; Toxoplasma: -7.344%.
With O=C(CCn1cncn1)N1CCCC(CO)(CCCc2ccccc2)C1 (stereo not drawn) the screen gave T. brucei: -49.2%; Toxoplasma: -5.306%.
With Cc1cc(CN2CCN(C(=O)CCc3cccs3)CC2)on1 the screen gave T. brucei: -10.23%; Toxoplasma: 9.655%.
With Cn1cc(CNCCc2nccs2)c(-c2cccnc2)n1 the screen gave T. brucei: -24.5%; Toxoplasma: -29.3%.
With Cc1ccc(C(=O)N2CCN(C(=O)C(C)n3ccnc3)CC2)cc1F (stereo not drawn) the screen gave T. brucei: 10.96%; Toxoplasma: 2.132%.

Repeated from the top, 3 entries:

compound,T. brucei,Toxoplasma
Cc1cccc(CC(=O)NCCCOC(C)C)c1,-19.93,-2.435
CN(CC(=O)N1CCc2[nH]c3ccc(F)cc3c2C1)CC1OCCO1,-43.31,-
CC(C)N1CCC(Nc2ccn(C)n2)C1=O (stereo not drawn),-14.09,0.3978

Source: ChEMBL document CHEMBL3988442, “University of Dundee, Small-Polar-MMV Screening Library” (2021).